# Library screen at single concentrations

By UniProt entry, the sequences of proteins in these tests, tags left out.
UniProt P9WPC5, whole entry: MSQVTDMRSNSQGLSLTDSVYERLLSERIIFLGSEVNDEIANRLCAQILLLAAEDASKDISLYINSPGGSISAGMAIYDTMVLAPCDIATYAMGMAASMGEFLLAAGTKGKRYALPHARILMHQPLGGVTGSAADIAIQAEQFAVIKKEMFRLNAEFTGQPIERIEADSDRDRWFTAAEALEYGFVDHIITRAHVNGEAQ
UniProt P9WPC3, whole entry partner: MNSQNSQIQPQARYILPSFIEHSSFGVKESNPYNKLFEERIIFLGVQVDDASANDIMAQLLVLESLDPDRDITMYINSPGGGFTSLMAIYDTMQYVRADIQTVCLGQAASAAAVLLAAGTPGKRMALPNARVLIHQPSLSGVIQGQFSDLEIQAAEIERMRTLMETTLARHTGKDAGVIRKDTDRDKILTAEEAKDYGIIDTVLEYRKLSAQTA
UniProt P9WNZ1, whole entry: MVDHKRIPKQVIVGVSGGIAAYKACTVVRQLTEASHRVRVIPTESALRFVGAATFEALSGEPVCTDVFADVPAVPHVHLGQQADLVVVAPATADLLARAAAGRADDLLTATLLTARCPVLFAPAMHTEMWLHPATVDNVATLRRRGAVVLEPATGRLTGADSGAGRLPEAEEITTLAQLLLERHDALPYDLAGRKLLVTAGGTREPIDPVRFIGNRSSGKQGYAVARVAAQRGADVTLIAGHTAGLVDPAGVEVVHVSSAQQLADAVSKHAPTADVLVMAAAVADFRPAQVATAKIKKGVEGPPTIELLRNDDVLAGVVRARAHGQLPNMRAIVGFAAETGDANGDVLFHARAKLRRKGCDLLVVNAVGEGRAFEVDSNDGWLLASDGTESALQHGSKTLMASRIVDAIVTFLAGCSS

Measurements from “University of Dundee, Small-Polar-MMV Screening Library” (2021), ChEMBL document CHEMBL3988442.

Each number is a percent effect as filed.
The record does not define 0% and 100%; most values in the screen are far below 50% and negative numbers occur (in some assays of this library far below -100).
This is an unselected part of the compounds tested.
A dash means the value is not listed here; it may have been measured.

ClpP1P2: 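ClpP1P2, Mycobacterium tuberculosis (UniProt P9WPC5 and UniProt P9WPC3). Protease assay of ClpP1P2, read by the AMC dye that it sets free. Concentration: 50 µM. Higher reads as stronger inhibition, judged from the few compounds that gave an IC50. Most other retested compounds had strongly negative values. Size under these conditions: about 69,000 compounds, about 10 of them at 50% or above in at least one test.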
CoaBC: 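Coenzyme A biosynthesis protein CoaBC, Mycobacterium tuberculosis (UniProt P9WNZ1). Enzyme assay of CoaBC with a phosphate dye (Biomol Green) read at 650 nm. Compounds at 30 µM. Direction is inferred from only a few compounds that gave an IC50; most scored high, so higher reads as stronger inhibition. Most strong results did not repeat in a second test. About 67,000 compounds were tested under these conditions; 0.06% (about 40) showed 50% or more at least once.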
Toxoplasma: 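Assay of Toxoplasma gondii numbers, read through their beta-galactosidase reporter with a colour substrate. Tested at 10 µM. The record gives no direction; the compounds picked for IC50 retests had high values, so higher reads as fewer parasites. Size under these conditions: about 67,000 compounds, about 260 of them at 50% or above in at least one test.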

structure	ClpP1P2	CoaBC	Toxoplasma
Cn1cc(C2CCCN2C(=O)Cn2c(=O)oc3ccccc32)cn1 (stereo not given)	2.675%	-4.018%	0.306%
Cc1nn(C)c2cn(CC(=O)N3CCN(c4ccccn4)CC3)nc12	-0.6503%	4.592%	-19.31%
CO[C@H]1CN(Cc2cc(F)ccc2F)CC[C@@]12CCCO2	-9.129%	0.7282%	-30.14%
COCCC(=O)N1CCC2(CN(Cc3cccc(F)c3)C2)C1	-5.83%	1.854%	17.46%
[H][C@]12CC[C@]([H])(CN(C(=O)C3CCC3)C1)N(Cc1cnn(CC)c1)C2	-	-	-24.79%
COCC(=O)Nc1ccnc(OCCN(C)C)c1	-7.984%	-3.226%	2.973%
Cc1c(NCc2cccnc2)cccc1C(=O)N1CCC(N(C)C)C1 (stereo not given)	-12.13%	2.479%	3.665%
Cc1ccc(NC2CCN(C(=O)c3cc(C)sc3C)CC2)nn1	-40.99%	4.7%	0.3954%
COc1ccccc1C(=O)N1CCCC1Cn1cc(C)cn1 (stereo not given)	9.699%	2.728%	2.585%
CCc1ncc(CN[C@@H]2CCCN(C(C)=O)[C@H]2c2ccc(C)s2)cn1.Cl	-	-	-13.01%
Cc1ccc(CC(=O)N2CCOC(c3nc(C(C)(C)C)n[nH]3)C2)cn1 (stereo not given)	-3.742%	6.329%	-5.35%
Cc1cnn(CC2CC2)c1NC(=O)c1cccnc1O	-8.935%	5.134%	14.77%
Cc1cc(-c2cnc(N3CCOCC3)nc2-c2ccc(C)s2)on1	-10.62%	-17.48%	10.6%
COc1ccc(CNc2c(N3CCN(C(C)=O)CC3)c(=O)c2=O)cc1	0.8283%	9.906%	14.1%
Cc1c(C(=O)NCC2CCN(C)C2)n(C)c2c(C)cccc12 (stereo not given)	6.839%	2.672%	42.37%
COc1cccc(N2CCN(C(=O)COc3c(C)occc3=O)CC2)c1	-6.305%	2.025%	-1.067%
Cc1cnc(C(=O)N2CCc3ncnc(-c4cnn(C)c4)c3CC2)cn1	-0.7896%	-3.951%	32.08%
CS(=O)(=O)NCc1n[nH]c2c1CCN(C(=O)c1ccsc1)C2	3.865%	-1.904%	-0.2137%
CC(=O)c1cn(CC(=O)N[C@H](C(=O)O)C(C)C)c2ccccc12	-8.946%	-5.932%	9.03%
CC(C)CNC(=O)c1ccc2c(c1)nc1n2CCN(Cc2ccco2)C1	-13.1%	1.139%	-5.898%
COc1ccccc1CN(CC1CCCO1)C(=O)c1scnc1C (stereo not given)	13.07%	6.2%	1.475%
CN(C)c1ncnc2c1CCN(Cc1nccs1)CC2	1.813%	-6.721%	-
O=C(O)CCCC(=O)NCC1(O)CCN(c2ccnc3cccnc23)C1 (stereo not given)	14.35%	-0.5256%	10.52%
CCN(Cc1cccs1)C(=O)c1ccc(=O)n(C)c1	8.664%	3.075%	-
CC[C@H]1N(CC2CCOCC2)CCC[C@]12CCC(=O)N2	-3.654%	-	-
CCCNC(=O)C[C@@H]1CCN(C(=O)c2cccnc2)C[C@@H]1CC	-15.86%	13.32%	1.879%
CCCS(=O)(=O)NCc1cccnc1Oc1ccc(C)c(F)c1F	-10.75%	3.758%	19.83%
CN(Cc1nc(C2CC2)no1)C(=O)c1cccc(CC2CCNCC2)c1	-16.97%	0.4914%	6.991%
CN1CC2(CCN(Cc3cc(Cl)ccc3OCC(=O)O)CC2)OC1=O	10.01%	-	3.56%
[H][C@]12CC[C@]([H])(CN(c3ncccn3)C1)N(C(=O)c1cc(F)ccc1OC)C2	-	-	-15%
CC(C(=O)N1CCCN(Cc2cnn(C)c2)CC1)n1ccnc1 (stereo not given)	-26.83%	7.985%	-35.22%
COC(=O)C1CN(Cc2nc(-c3ccccc3)cs2)C[C@@H](C)O1 (stereo not given in full)	14.34%	-1.556%	0%
CCn1cnnc1CNC(=O)N1CCN(c2ccc(OC)cc2)CC1	5.767%	-0.9032%	-1.713%
c1cnnc(NCC2CN(CCN3CCCCC3)CCO2)c1 (stereo not given)	0.6785%	-4.819%	0.5294%
Cc1nc(-c2cccc(C(=O)O)c2)cc(C2CCN(C(C)C)C2)n1 (stereo not given)	4.592%	2.487%	-7.698%
CN(C)C1CCN(C(=O)c2cc(-c3ccn(C)n3)n3ccccc23)CC1	-266.6%	1.728%	-
CN(CCc1ccccn1)c1cnn(C)c(=O)c1Br	17.98%	-0.8783%	-0.6769%
O=c1[nH]cc(Nc2ccc(Cl)cc2)c(=O)[nH]1	-7.703%	10.16%	-0.1325%
O=C(O)CC1COCCN1C(=O)C1(c2ccc(Cl)cc2)CCC1 (stereo not given)	-5.6%	-2.886%	-7.994%
Cc1cnc(N2CCN3C[C@H](OCc4cccc(C)n4)C[C@H]3C2)nc1	-2.945%	-	-